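Genome-wide siRNA knockdown in TC32 Ewing sarcoma cells, comparing luciferase light from an NR0B1-promoter reporter with a CMV-promoter reporter 48 hours after transfection. Each siRNA was applied at 20 nM. A z-score of the log NR0B1-over-CMV signal, less the median of siRNAs with the same seed; more negative means a stronger specific loss of the NR0B1 reporter.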

This is part of the screen; most of the strongest results are not listed here. Sequences are the guide (antisense) strand, without overhang.

{"sirna": "UCUGAAACAACAGCUAUCC", "gene": "CLEC7A", "seed-corrected z-score": "-0.807"}
{"sirna": "AAGUGUCUCAUCCAGAUCC", "gene": "CTDNEP1", "seed-corrected z-score": "0.02607"}
{"sirna": "AGCUGAACCACAUUCUCUG", "gene": "ANKRD6", "seed-corrected z-score": "-1"}
{"sirna": "UUCGGUAUCUGCAUUAAGC", "gene": "FCHSD2", "seed-corrected z-score": "0.2037"}
{"sirna": "UAAUUCAUUCCUUAGUUCU", "gene": "MED28", "seed-corrected z-score": "0.1277"}
{"sirna": "UUUCCAUCUCGGUUAUUCC", "gene": "CLEC12B", "seed-corrected z-score": "-1.051"}
{"sirna": "UUGGGUUUUACAGCCUUAG", "gene": "HIST1H1A", "seed-corrected z-score": "0.7206"}
{"sirna": "AUACGAAUAAGGUCCCUUC", "gene": "DCP1A", "seed-corrected z-score": "0.5127"}
{"sirna": "UAUAGAAUCAGAUUGAUUG", "gene": "HOOK3", "seed-corrected z-score": "0.6754"}
{"sirna": "UAAAUUUAUGGUGUCUCUU", "gene": "GOLM1", "seed-corrected z-score": "0.8059"}
{"sirna": "UACUGUUACCCAGUCGUUC", "gene": "CDH17", "seed-corrected z-score": "-0.4377"}
{"sirna": "ACAUUGAGCAACUCCAGGG", "gene": "CDHR4", "seed-corrected z-score": "3.063"}
{"sirna": "AAAUUGUAUUGACUUAUCC", "gene": "HS3ST5", "seed-corrected z-score": "-0.2934"}
{"sirna": "UACAUUGCACUCUUCAAUU", "gene": "TAS2R43", "seed-corrected z-score": "2.154"}
{"sirna": "UGGAGGUUCUCAUUUUUCU", "gene": "SLC25A19", "seed-corrected z-score": "-0.2061"}
{"sirna": "UGAUUGACACGGAAAUCUG", "gene": "SPAG5", "seed-corrected z-score": "0.1272"}
{"sirna": "AACAUCAGAAGUCCAGUCC", "gene": "TNKS1BP1", "seed-corrected z-score": "-1.573"}
{"sirna": "AAAUAGCCUAGAGUAGUGC", "gene": "STAU2", "seed-corrected z-score": "1.21"}
{"sirna": "UCUGGUGCAAUUCUGUCAC", "gene": "BOLA1", "seed-corrected z-score": "-1.06"}
{"sirna": "UCUUGUACUGGUUCUUCUC", "gene": "KCNJ12", "seed-corrected z-score": "0.7928"}
{"sirna": "UGAGGUUCUAAGAGCAGAG", "gene": "DEFA5", "seed-corrected z-score": "-0.8835"}
{"sirna": "AUACUGAUACAGACAGUGG", "gene": "ARGFX", "seed-corrected z-score": "0.229"}
{"sirna": "UUUGUUCCAAAUGUCUCCG", "gene": "BRDTP1", "seed-corrected z-score": "1.905"}
{"sirna": "UUAAACAGAGUGUAAGUGC", "gene": "FGF13", "seed-corrected z-score": "-0.3317"}
{"sirna": "AUAUUAGACAUUUAGAAGC", "gene": "SERP1", "seed-corrected z-score": "2.171"}
{"sirna": "UUAAUGUUCAGUGACAAGG", "gene": "PRH2", "seed-corrected z-score": "0.006085"}
{"sirna": "UUUCAUGAAAUCAUCCCUC", "gene": "LOC150935", "seed-corrected z-score": "0.2861"}
{"sirna": "AUUCGUCAAACUGCUCUGC", "gene": "FH", "seed-corrected z-score": "-0.7141"}
{"sirna": "UCGUCUAUCUUGCAUAACC", "gene": "KIF5B", "seed-corrected z-score": "-0.6715"}
{"sirna": "GUGGGAAACAGACAGGCUG", "gene": "LGALS9B", "seed-corrected z-score": "-0.27"}
{"sirna": "UGUUGACAUUGUAUAAGCC", "gene": "HOXA7", "seed-corrected z-score": "-0.3176"}
{"sirna": "UGUAUGAUAGGUUCCCACC", "gene": "MEP1A", "seed-corrected z-score": "0.3555"}
{"sirna": "UUUGGAAAGAGUCCACACU", "gene": "FAM46C", "seed-corrected z-score": "0.1673"}
{"sirna": "AGAUCUACUACAUCUCUGC", "gene": "ATAD5", "seed-corrected z-score": "1.128"}
{"sirna": "UUCAUAUUUUGGGUAGUAG", "gene": "SMR3B", "seed-corrected z-score": "0.3848"}
{"sirna": "UGAAUCACAAUGGGCACUU", "gene": "SZRD1", "seed-corrected z-score": "-1.288"}
{"sirna": "AUCGGAAGAGUGCCUAUCC", "gene": "CHST9", "seed-corrected z-score": "0.2236"}

From PubChem BioAssay record AID1159506 (NCATS, 2015).